Experimental findings from publication PMC7877178 are described below.

Chains of the proteins cited; added tags and fusions are not shown. Lines headed by an entry give the natural chain unless they say otherwise; changes in a name come on top.
UniProt Q9BVS4: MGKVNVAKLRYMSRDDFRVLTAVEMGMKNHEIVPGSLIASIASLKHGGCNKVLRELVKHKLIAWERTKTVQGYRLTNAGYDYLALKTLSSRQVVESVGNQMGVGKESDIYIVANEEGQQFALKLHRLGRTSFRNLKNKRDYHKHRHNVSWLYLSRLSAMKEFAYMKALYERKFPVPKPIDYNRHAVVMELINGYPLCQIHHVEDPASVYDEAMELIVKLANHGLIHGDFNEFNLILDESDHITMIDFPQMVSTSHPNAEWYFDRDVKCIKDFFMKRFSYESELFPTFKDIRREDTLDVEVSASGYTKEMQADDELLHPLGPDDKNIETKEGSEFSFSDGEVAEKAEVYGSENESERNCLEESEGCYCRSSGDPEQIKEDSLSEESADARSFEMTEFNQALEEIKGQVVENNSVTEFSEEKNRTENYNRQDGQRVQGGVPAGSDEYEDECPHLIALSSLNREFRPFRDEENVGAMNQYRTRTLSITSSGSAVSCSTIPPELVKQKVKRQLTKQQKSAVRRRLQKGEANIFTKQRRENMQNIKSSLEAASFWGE

Results are given in words; binding and its absence hold for the method and conditions named. In cells and extracts the contact can be indirect. Some results given as binding are weak or reduced against the parent protein; the word gives no strength. For part of these data: Where a sequence is shown, tags or fusion partners need not be part of it.

Assay [1] has as its target T1, FLAG-tagged BYSL (Bystin) (human) (UniProt Q13895).
T1 sequence: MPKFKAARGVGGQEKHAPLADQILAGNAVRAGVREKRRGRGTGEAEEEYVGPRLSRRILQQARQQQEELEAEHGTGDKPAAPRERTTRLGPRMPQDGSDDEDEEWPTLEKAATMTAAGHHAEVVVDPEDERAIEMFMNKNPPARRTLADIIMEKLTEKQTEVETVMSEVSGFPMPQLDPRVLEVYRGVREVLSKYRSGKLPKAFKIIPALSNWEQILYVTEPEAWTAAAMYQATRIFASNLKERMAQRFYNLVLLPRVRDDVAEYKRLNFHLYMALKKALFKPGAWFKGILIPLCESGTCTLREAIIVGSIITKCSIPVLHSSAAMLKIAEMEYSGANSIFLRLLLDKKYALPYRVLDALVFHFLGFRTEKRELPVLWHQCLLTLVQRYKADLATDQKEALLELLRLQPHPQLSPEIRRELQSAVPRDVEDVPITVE
Description: co-IP; HEK293T cells transfected with FLAG-BYSL plasmid; lysate (1 mg total protein, precleared) immunoprecipitated with magnetic FLAG beads at 4 °C overnight; Western blot.

Assay [2] concerns the target T2, BYSL (Bystin), endogenous in U251 glioma cells (human (endogenous in U251)) (UniProt Q13895).
T2 sequence: T1 sequence
Description: co-IP; U251 glioma cells, endogenous proteins; lysate immunoprecipitated with anti-BYSL antibody; Western blot.

Assay [3] has as its target Myc-tagged RIOK2 (human) (UniProt Q9BVS4). Description: co-IP; HEK293T cells transfected with Myc-RIOK2 plasmid; lysate immunoprecipitated with anti-Myc antibody; Western blot.

Consider “RIOK2, endogenous in HEK293T cells (from UniProt Q9BVS4-1 1-552)”, for which, in assay [1], the binding result is “binds”.
Regarding “RIOK2, endogenous in U251 glioma cells (from UniProt Q9BVS4-1 1-552)”, in assay [2], the binding entry is on record as “binds”.

B1: BYSL (Bystin), endogenous in HEK293T cells (protein, UniProt Q13895 1-437)
chain: T1 sequence
Turning to B1, the binding entry in assay [3] is given as “binds”.
